In patent US20190336574A1 (TRUSTEES OF PRINCETON UNIVERSITY, published 2019):
Positions count from the first letter of the chain named. Names may count otherwise. Results are given in words; binding and its absence hold for the method and conditions named. For part of these data: Binding seen in cells or lysates may run through a third protein. Some results given as binding are weak or reduced against the parent protein; the word gives no strength. Where a sequence is shown, tags or fusion partners need not be part of it.

T1: GST-MTDH (386-407), wild type (human)
T1 sequence: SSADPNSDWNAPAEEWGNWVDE

T2: His6-SND1ΔC (SND1 residues 1-339) (human, UniProt Q7KZF4 1-339)
T2 construct: not shown: N-terminal His tag (His6, His8 or His) with TEV site, pQlink vector
T2 sequence: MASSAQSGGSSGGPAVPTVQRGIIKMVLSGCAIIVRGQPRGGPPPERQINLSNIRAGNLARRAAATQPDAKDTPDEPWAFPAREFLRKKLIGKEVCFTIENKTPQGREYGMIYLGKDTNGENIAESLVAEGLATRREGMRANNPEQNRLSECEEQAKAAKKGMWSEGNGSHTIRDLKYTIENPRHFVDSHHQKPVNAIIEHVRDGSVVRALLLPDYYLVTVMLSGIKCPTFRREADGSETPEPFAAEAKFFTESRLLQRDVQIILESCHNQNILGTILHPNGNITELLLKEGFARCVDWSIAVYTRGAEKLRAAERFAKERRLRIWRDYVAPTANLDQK

B1: His-SND1 (16-339), SN1/2 domains, wild type (other)
chain: VPTVQRGIIKMVLSGCAIIVRGQPRGGPPPERQINLSNIRAGNLARRAAATQPDAKDTPDEPWAFPAREFLRKKLIGKEVCFTIENKTPQGREYGMIYLGKDTNGENIAESLVAEGLATRREGMRANNPEQNRLSECEEQAKAAKKGMWSEGNGSHTIRDLKYTIENPRHFVDSHHQKPVNAIIEHVRDGSVVRALLLPDYYLVTVMLSGIKCPTFRREADGSETPEPFAAEAKFFTESRLLQRDVQIILESCHNQNILGTILHPNGNITELLLKEGFARCVDWSIAVYTRGAEKLRAAERFAKERRLRIWRDYVAPTANLDQK
notes: also called His6-SND1 harboring the SN1/2 domains; not shown: N-terminal His tag (His6, His8 or His) with TEV site, pQlink vector
B2: GST-MTDH (364-582), wild type (other)
chain: YQWDVSRNQPYIDDEWSGLNGLSSADPNSDWNAPAEEWGNWVDEERASLLKSQEPIPDDQKVSDDDKEKGEGALPTGKSKKKKKKKKKQGEDNSTAQDTEELEKEIREDLPVNTSKTRPKQEKAFSLKTISTSDPAEVLVKNSQPIKTLPPATSTEPSVILSKSDSDKSSSQVPPILQETDKSKSNTKQNSVPPSQTKSETSWESPKQIKKKKKARRET
notes: not shown: N-terminal GST tag with TEV site, pQlink vector
B3: GST-MTDH (364-582) TPM3 (W404D, D406R, E407R) (protein, not shown: a dimerising Fc or GST)
chain: B2 chain with W41D, D43R, E44R

What was measured:
[1] = molecular target: T1, GST-MTDH (386-407), wild type (human); assay: BLI, GST-MTDH (386-407) on anti-GST sensors, His8-SND1 (16-339) 0.1-3.2 µM in solution
[2] = molecular target: T2, His6-SND1ΔC (SND1 residues 1-339); assay: GST pull-down of His6-SND1ΔC, SDS-PAGE, Coomassie
Source text: FIGS. 7A-E represents determination of key regions and residues mediating the MTDH-SND1 interaction. (FIG. 7A) Schematics of MTDH fragments and mutants with indicated SND1-binding capability. + indicates binding and − indicates no binding based on results shown below. Two putative nuclear localization signals are residues 432-451 for NLS2 and residues 561-580 for NLS3. […] (FIG. 7B) Pulldown of His6-SND1ΔC by GST-tagged MTDH fragments with indicated boundaries. The bound proteins were examined by SDS-PAGE and visualized by Coomassie blue staining. […] For (FIG. 7B) and (FIG. 7C), 1/10 of the His6-SND1ΔC input was shown, and GST alone was used as a negative control. Representative results of 3 independent experiments are shown. (FIG. 7D, FIG. 7E) Lysates from HEK293T cells expressing the indicated ectopic human SND1, AGO2 or MTDH were immunoprecipitated with anti-Myc and immunoblotted with the indicated antibodies.
TPM1 comprises mutations D389R, D393R and W394D. TPM2 comprises mutations E399R, E400R and W401D. TPM3 comprises mutations W404D, D406R and E407R. […] The mutations are also set out in Table 3.

Binder	binding [1]	binding [2]
B1	binds	
B2		binds
B3		binds
